In patent publication US4293560A, “Talampicillin 2-methoxyphenoxyacetate and pharmaceutical compositions containing it” (priority 1980, dated 1981):
Entries after “also recorded” stand apart in the source; their conditions may differ.

Assay: Taste
Conditions: talampicillin 2-methoxyphenoxyacetate

Compound: CC1(C)S[C@@H]2[C@H](NC(=O)[C@H](N)c3ccccc3)C(=O)N2[C@H]1C(=O)OC1OC(=O)c2ccccc21 (single isomer, unassigned) [talampicillin 2-methoxyphenoxyacetate, 2-methoxyphenoxyacetate of the phthalidyl ester of the 6-[D(-)-α-aminophenylacetamido]penicillanic acid]
- taste: lacking the bitter taste; also recorded: good taste
